Measurements reported in PubChem BioAssay AID504804 (Drosophila RNAi Screening Center, 2011).

Assay: 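Fly genes whose loss lessens doxorubicin-driven cell death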 (primary screen)
Cells: Drosophila Kc cells
Reagent: long dsRNA against Drosophila genes, 0.5 µg dsRNA per well
Duration: 96 h (48 h knock-down, then 48 h drug)
Treatment: doxorubicin 5 µg/ml for 48 h, added 48 h after dsRNA
Measurement: 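Luminescent ATP counts per replicate, not normalised, reflecting viable cells after 48 h dsRNA knock-down followed by 48 h of 5 µg/ml doxorubicin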
Reading the numbers: raw ATP luminescence: higher = more viable cells, protection from doxorubicin
Rule for the call: 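z-score of 2 or more over plate mean in both duplicates, retained only when retests and separate dsRNAs confirm the protection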
In all, the deposit lists about 19,000 reagents; shown is a random part of those with a known target gene and a result. In the full data, 47 (0.25%) got an active call. 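Signals are raw, not normalised; exact z-scores behind calls not deposited; actives needed confirmation, so some wells reaching 2 SD are inactive.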 The numbers tell different reagents against one gene apart. A plus sign joins genes that one reagent is predicted to hit.

| target | reagent no. | raw ATP luminescence, replicate 1 | raw ATP luminescence, replicate 2 | activity call |
| --- | --- | --- | --- | --- |
| CG31008 (GeneID 318554) | 1 | 1.30e5 | 1.61e5 | inactive |
| btsz (GeneID 3346167) | 1 | 35110 | 30560 | inactive |
| btsz (GeneID 3346167) | 2 | 74810 | 74070 | inactive |
| CG33784 (GeneID 3772181) | 1 | 60413 | 59347 | inactive |
| Muc26B (GeneID 50424) | 1 | 26190 | 30737 | inactive |
| dpa (GeneID 35679) | 1 | 36463 | 62193 | inactive |
| yps (GeneID 39377) | 1 | 74613 | 72650 | inactive |
| CG16879 (retired record) (GeneID 34827) | 1 | 73373 | 1.12e5 | inactive |
| CG14787 (GeneID 31096) | 1 | 55800 | 66630 | inactive |
| CG31089 (GeneID 43135) | 1 | 64620 | 62380 | inactive |
| RIOK1 (GeneID 39309) | 1 | 37687 | 36737 | inactive |
| poe (GeneID 46243) | 1 | 80670 | 45707 | inactive |
| zen (GeneID 40828) | 1 | 69197 | 80137 | inactive |
| CG5612 (GeneID 43316) | 1 | 34450 | 40450 | inactive |
| sba (GeneID 42824) | 1 | 33243 | 40450 | inactive |
| sba (GeneID 42824) | 2 | 57570 | 52210 | inactive |
| CG5928 (GeneID 31539) | 1 | 55020 | 45850 | inactive |
| CG14631 (GeneID 31049) | 1 | 53380 | 55500 | inactive |
| CG14631 (GeneID 31049) | 2 | 58800 | 54740 | inactive |
| Eig71Eg (GeneID 39708) | 1 | 37733 | 28830 | inactive |
| mRpS21 (GeneID 318249) | 1 | 1.79e5 | 2.18e5 | inactive |
| CG8281 (GeneID 38880) | 1 | 61103 | 71033 | inactive |
| Trim9 (GeneID 34453) | 1 | 36740 | 65317 | inactive |
| Vha16-5 (GeneID 34482) | 1 | 33790 | 53557 | inactive |
| CG31010 (GeneID 318555) | 1 | 2.57e5 | 2.16e5 | inactive |
| CG33489 (GeneID 2768971) | 1 | 70827 | 52390 | inactive |
| CG8079 (GeneID 36689) | 1 | 62273 | 65990 | inactive |
| Mccc2 (GeneID 59261) | 1 | 39117 | 62530 | inactive |
| CG30385 (GeneID 246585) | 1 | 42687 | 72920 | inactive |
| CG31404 (GeneID 318714) | 1 | 57680 | 86070 | inactive |
| cpa (GeneID 37387) | 1 | 58863 | 54233 | inactive |
| CG15643 (GeneID 32489) | 1 | 3.97e5 | 3.30e5 | inactive |
| Strump (GeneID 39766) | 1 | 78073 | 65190 | inactive |
| Npc2h (GeneID 43649) | 1 | 76460 | 48910 | inactive |
| CG9570 (GeneID 33009) | 1 | 4.17e5 | 3.38e5 | inactive |
| Syt1 (GeneID 33473) | 1 | 2.67e5 | 2.69e5 | inactive |
| Syt1 (GeneID 33473) | 2 | 2.94e5 | 2.89e5 | inactive |
| Syt1 (GeneID 33473) | 3 | 2.77e5 | 2.96e5 | inactive |
| Syt1 (GeneID 33473) | 4 | 1.09e5 | 61007 | inactive |
| Cyp4d21 (GeneID 34036) | 1 | 1.11e5 | 70527 | inactive |
| CG10508 (GeneID 40342) | 1 | 19923 | 20457 | inactive |
| CG10508 (GeneID 40342) | 2 | 56980 | 50693 | inactive |
| CG14071 (GeneID 34507) | 1 | 50047 | 86073 | inactive |
| Nt5c (GeneID 35984) | 1 | 90840 | 69550 | inactive |
| CG3225 (GeneID 33680) | 1 | 1.15e5 | 95873 | inactive |
| Atac2 (GeneID 35113) | 1 | 83523 | 54907 | inactive |
| bai (GeneID 42996) | 1 | 73540 | 60210 | inactive |
| sel (GeneID 36046) | 1 | 73170 | 68823 | inactive |

Reprinted from the listing for reference:
| target | reagent no. | raw ATP luminescence, replicate 1 | raw ATP luminescence, replicate 2 | activity call |
| --- | --- | --- | --- | --- |
| CG16879 (retired record) (GeneID 34827) | 1 | 73373 | 1.12e5 | inactive |
| CG14787 (GeneID 31096) | 1 | 55800 | 66630 | inactive |
| CG31089 (GeneID 43135) | 1 | 64620 | 62380 | inactive |
| RIOK1 (GeneID 39309) | 1 | 37687 | 36737 | inactive |
| poe (GeneID 46243) | 1 | 80670 | 45707 | inactive |
| zen (GeneID 40828) | 1 | 69197 | 80137 | inactive |
| CG5612 (GeneID 43316) | 1 | 34450 | 40450 | inactive |
| sba (GeneID 42824) | 1 | 33243 | 40450 | inactive |
| sba (GeneID 42824) | 2 | 57570 | 52210 | inactive |
| CG5928 (GeneID 31539) | 1 | 55020 | 45850 | inactive |
| CG14631 (GeneID 31049) | 1 | 53380 | 55500 | inactive |
| CG14631 (GeneID 31049) | 2 | 58800 | 54740 | inactive |
| Eig71Eg (GeneID 39708) | 1 | 37733 | 28830 | inactive |
| mRpS21 (GeneID 318249) | 1 | 1.79e5 | 2.18e5 | inactive |

The list goes on:
| target | reagent no. | raw ATP luminescence, replicate 1 | raw ATP luminescence, replicate 2 | activity call |
| --- | --- | --- | --- | --- |
| CG10764 (GeneID 36962) | 1 | 63140 | 61877 | inactive |
| Npc2d (GeneID 41232) | 1 | 49337 | 40797 | inactive |
| CG13585 (GeneID 37918) | 1 | 52317 | 52690 | inactive |
| CG16956 (GeneID 34760) | 1 | 55073 | 65147 | inactive |
| Ccp84Ag (GeneID 40819) | 1 | 55837 | 56097 | inactive |
| CG10026 (GeneID 35226) | 1 | 60657 | 54790 | inactive |
| CG14518 (GeneID 43421) | 1 | 61910 | 75730 | inactive |
| f-cup (GeneID 41677) | 1 | 42197 | 31953 | inactive |
| SNCF (GeneID 39496) | 1 | 88093 | 72033 | inactive |
| Sumo (GeneID 33981) | 1 | 56757 | 50753 | inactive |
| CG14826 (GeneID 38791) | 1 | 66490 | 77190 | inactive |
| CG32829 (GeneID 318235) | 1 | 3.45e5 | 3.21e5 | inactive |
| Ir7e (GeneID 7354417) | 1 | 1.87e5 | 2.35e5 | inactive |
| LManIV (GeneID 34204) | 1 | 43237 | 65490 | inactive |
| ninaA (GeneID 33271) | 1 | 1.07e5 | 62587 | inactive |
| CG31321 (GeneID 318681) | 1 | 2.44e5 | 1.97e5 | inactive |
| CG33460 (GeneID 3885588) | 1 | 95020 | 96937 | inactive |
| CG42750 (GeneID 35090) | 1 | 33753 | 44810 | inactive |
| CG42750 (GeneID 35090) | 2 | 50997 | 71333 | inactive |
| CG42750 (GeneID 35090) | 3 | 83487 | 1.19e5 | inactive |
| b (GeneID 34791) | 1 | 72070 | 1.08e5 | inactive |
| Mrm2 (GeneID 42359) | 1 | 62890 | 54520 | inactive |
| CG4730 (GeneID 43099) | 1 | 46990 | 74080 | inactive |
| CG13829 (GeneID 42740) | 1 | 59130 | 75180 | inactive |
| Muc4B (GeneID 31368) | 1 | 54730 | 70130 | inactive |
| Muc4B (GeneID 31368) | 2 | 48950 | 65580 | inactive |
| CG34050 (retired record) (GeneID 3885634) | 1 | 22673 | 27237 | inactive |
| CG30065 (GeneID 246431) | 1 | 74533 | 85407 | inactive |
| Ttc7 (GeneID 48387) | 1 | 58610 | 77607 | inactive |
| CG11703 (GeneID 42307) | 1 | 42830 | 41780 | inactive |
| Obp47a (GeneID 36162) | 1 | 44567 | 81800 | inactive |
| TfIIS (GeneID 34883) | 1 | 68650 | 63530 | inactive |
| CG40583 (retired record) (GeneID 5740259) | 1 | 2.18e5 | 2.31e5 | inactive |
| Flo2 (GeneID 32425) | 1 | 2.11e5 | 2.15e5 | inactive |
| Flo2 (GeneID 32425) | 2 | 4.12e5 | 3.48e5 | inactive |
| EMC10 (GeneID 40396) | 1 | 66670 | 56450 | inactive |
| alpha-Est3 (GeneID 40907) | 1 | 31650 | 27407 | inactive |
| CG14362 (GeneID 41695) | 1 | 98890 | 78910 | inactive |
| CG13506 (GeneID 37556) | 1 | 60790 | 48200 | inactive |
| Atg13 (GeneID 40998) | 1 | 50493 | 43780 | inactive |
| CG11566 (retired record) + stg1 | 1 | 1.01e5 | 1.02e5 | inactive |
| CG11566 (retired record) + stg1 | 2 | 2.23e5 | 2.27e5 | inactive |
| CG11566 (retired record) + stg1 | 3 | 3.31e5 | 3.55e5 | inactive |
| CG11566 (retired record) + stg1 | 4 | 3.28e5 | 3.15e5 | inactive |
| Atg8b (GeneID 42132) | 1 | 44730 | 41720 | inactive |
| Sec61gamma (GeneID 32968) | 1 | 3.03e5 | 3.00e5 | inactive |
| alpha-Est8 (GeneID 40899) | 1 | 58153 | 57123 | inactive |
| CG42404 (GeneID 41842) | 1 | 59750 | 64450 | inactive |
| CycY (GeneID 34593) | 1 | 87360 | 75770 | inactive |
| dpr9 (GeneID 2768670) | 1 | 63613 | 28653 | inactive |
| dpr9 (GeneID 2768670) | 2 | 53570 | 82980 | inactive |
| dpr9 (GeneID 2768670) | 3 | 73490 | 95100 | inactive |
| caly (GeneID 36794) | 1 | 72307 | 50620 | inactive |
| PSMG1 (GeneID 40719) | 1 | 75203 | 29347 | inactive |
| RPA2 (GeneID 35364) | 1 | 71503 | 67350 | inactive |
| p115 (GeneID 31698) | 1 | 26170 | 43270 | inactive |
| CG8260 (GeneID 32521) | 1 | 3.02e5 | 2.88e5 | inactive |
| CG14195 (GeneID 32911) | 1 | 3.66e5 | 3.14e5 | inactive |
| Hrb87F (GeneID 48535) | 1 | 40010 | 22690 | inactive |
